Measured values reported in patent publication US7223902B1, “Method of producing recombinant Aspergillus niger β-glucosidase and an aroma spreading plant” (Yissum Research Development Company of the Hebrew …, priority 1999, dated 2007).

Test system: CB14 transgenic plant (Cel1 signal peptide + BGL1)
Assay: SPMI-GC/MS analysis of flavor compounds in transgenic tobacco leaf extract, line CB14
Design: species or system Nicotiana tabacum cv. Samson; key: “−” means no significant difference in concentration compared with wild type.; “+” means significant increase compared with the wild type.; “−−” means significant decrease compared with the wild type.; “++” means significant increase compared with a respective mark “+”
Settings: leaf extract incubated 9 hours at 37° C.

Row | SMILES | concentration of flavor compound in CB14 compared with wild type
1 | CCCCCCCO [1-Heptanol] | −
2 | CCCC=CC=O [2-Hexenal] | −
3 | CCCCCCC(CO)CCCC (stereo not shown) [2-butyl-1-octanol] | −
4 | CCCCC(CC)CO (stereo not shown) [2-ethyl-1-pexanol] | −
5 | Cc1ccccc1O [2-methyl-phenol] | −
6 | CC1=C(C=CCC=O)C(C)(C)CCC1 [4-[2,6,6-trimethyl-1-cyclohexen-1-yl]3-Buten-1-one] | +
7 | Oc1ccc2ncccc2c1 [6-Quinolinol] | −
8 | CCCCCC=O [Hexanal] | −^a
9 | C=C(C)[C@H]1CC=C(C)CC1 [Limonene] | ++
10 | CC1CCC(C(C)C)C(O)C1 (stereo not shown) [Menthol] | +
11 | CC(C)=CCC/C(C)=C\CO [Nerol] | −
12 | CCCCCCCC/C=C\CCCCCCCCO [Oleyl alcohol] | −−^c
13 | C=C1C=CCC(C)(C)C12CCC(C)O2 (stereo not shown) [Vitispirane] | −
